The supplement of paper PMC12823440, “Inhibitors supercharge kinase turnover through native proteolytic circuits” (Nature, 2025)
Some of the results follow. The calls rarely recur for the same compound in another form.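 In K562 cells expressing nanoluciferase-fused kinases, luminescence was recorded at 4 h intervals between 2 and 18 h, normalized as percent of control with DMSO at 100% and a positive control at 0%. A significant (2 sigma) signal drop marks a time point as decreased. The authors' rule for a hit is not shown and takes in more than the number of time points.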

Amino acid sequences for entries named in this document (tags omitted). A change or cut given only in a name is not applied to a line headed by its entry.
UniProt P50613: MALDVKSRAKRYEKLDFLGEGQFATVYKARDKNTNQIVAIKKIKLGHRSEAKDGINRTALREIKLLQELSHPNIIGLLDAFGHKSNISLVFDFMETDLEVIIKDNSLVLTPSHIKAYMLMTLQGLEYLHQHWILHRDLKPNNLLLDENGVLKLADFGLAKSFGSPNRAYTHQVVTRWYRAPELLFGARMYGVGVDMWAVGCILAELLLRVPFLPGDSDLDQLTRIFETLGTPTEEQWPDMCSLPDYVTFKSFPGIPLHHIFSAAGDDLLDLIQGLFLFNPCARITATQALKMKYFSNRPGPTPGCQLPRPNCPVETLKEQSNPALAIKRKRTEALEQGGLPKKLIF
UniProt P50750, whole entry: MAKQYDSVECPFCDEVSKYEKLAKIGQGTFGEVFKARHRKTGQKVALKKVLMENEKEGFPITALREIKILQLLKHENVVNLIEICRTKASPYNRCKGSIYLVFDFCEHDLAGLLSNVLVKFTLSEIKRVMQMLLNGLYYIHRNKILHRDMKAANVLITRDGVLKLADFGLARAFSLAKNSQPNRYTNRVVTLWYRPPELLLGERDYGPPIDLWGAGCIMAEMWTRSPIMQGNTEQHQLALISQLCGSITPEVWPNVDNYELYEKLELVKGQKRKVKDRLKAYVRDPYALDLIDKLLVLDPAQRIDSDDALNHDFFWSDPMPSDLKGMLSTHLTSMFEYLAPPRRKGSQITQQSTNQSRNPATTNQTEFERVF
UniProt O96017, whole entry: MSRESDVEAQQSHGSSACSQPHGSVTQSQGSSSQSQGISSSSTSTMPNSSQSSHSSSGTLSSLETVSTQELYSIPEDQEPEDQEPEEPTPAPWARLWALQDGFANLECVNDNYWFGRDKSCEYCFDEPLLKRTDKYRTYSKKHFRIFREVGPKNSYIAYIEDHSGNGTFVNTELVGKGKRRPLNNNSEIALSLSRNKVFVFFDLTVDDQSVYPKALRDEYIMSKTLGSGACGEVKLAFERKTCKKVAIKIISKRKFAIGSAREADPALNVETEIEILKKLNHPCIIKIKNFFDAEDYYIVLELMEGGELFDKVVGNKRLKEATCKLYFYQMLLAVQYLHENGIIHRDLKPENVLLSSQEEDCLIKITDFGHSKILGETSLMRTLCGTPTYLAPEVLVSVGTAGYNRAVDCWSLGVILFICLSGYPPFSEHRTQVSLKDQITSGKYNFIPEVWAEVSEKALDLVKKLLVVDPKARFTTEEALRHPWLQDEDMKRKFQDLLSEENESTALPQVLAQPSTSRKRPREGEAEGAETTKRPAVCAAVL
UniProt P07333, whole entry: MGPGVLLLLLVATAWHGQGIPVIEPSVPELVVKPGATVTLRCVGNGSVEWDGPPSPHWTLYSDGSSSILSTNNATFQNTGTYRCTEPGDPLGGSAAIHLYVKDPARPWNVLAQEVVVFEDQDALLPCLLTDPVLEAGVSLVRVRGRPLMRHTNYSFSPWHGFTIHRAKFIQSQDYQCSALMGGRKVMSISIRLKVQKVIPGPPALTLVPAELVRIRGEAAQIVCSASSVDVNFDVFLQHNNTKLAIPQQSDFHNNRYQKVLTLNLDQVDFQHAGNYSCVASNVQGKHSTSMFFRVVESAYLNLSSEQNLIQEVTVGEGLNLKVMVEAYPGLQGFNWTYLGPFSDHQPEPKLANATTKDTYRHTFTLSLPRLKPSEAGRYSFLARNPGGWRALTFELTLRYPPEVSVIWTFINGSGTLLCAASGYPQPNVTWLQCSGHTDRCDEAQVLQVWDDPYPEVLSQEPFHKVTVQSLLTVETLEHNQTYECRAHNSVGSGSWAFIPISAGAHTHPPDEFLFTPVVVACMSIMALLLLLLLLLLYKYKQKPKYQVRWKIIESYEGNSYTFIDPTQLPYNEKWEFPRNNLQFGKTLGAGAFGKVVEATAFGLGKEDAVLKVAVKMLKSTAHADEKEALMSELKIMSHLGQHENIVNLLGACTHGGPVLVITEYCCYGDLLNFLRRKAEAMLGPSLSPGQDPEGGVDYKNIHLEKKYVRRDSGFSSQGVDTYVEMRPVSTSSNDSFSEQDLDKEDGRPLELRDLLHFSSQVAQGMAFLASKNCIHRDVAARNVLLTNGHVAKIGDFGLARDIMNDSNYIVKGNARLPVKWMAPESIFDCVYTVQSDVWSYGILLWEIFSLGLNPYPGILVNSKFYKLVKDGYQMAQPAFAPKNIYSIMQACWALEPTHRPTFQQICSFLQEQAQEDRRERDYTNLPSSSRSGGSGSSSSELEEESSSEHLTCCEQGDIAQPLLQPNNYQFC
UniProt P41240: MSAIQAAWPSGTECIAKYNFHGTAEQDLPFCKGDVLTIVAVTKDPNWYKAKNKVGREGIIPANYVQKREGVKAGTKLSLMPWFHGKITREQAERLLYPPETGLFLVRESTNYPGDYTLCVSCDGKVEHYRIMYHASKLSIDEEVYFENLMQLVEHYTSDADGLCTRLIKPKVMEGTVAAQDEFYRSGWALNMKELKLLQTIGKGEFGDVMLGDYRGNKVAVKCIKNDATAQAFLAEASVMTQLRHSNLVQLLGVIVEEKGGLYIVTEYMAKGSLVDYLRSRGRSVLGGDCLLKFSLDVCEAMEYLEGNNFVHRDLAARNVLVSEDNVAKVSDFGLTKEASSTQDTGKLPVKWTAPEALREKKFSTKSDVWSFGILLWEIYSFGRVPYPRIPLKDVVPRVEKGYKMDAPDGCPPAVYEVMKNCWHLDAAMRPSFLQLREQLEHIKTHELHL
UniProt P48729: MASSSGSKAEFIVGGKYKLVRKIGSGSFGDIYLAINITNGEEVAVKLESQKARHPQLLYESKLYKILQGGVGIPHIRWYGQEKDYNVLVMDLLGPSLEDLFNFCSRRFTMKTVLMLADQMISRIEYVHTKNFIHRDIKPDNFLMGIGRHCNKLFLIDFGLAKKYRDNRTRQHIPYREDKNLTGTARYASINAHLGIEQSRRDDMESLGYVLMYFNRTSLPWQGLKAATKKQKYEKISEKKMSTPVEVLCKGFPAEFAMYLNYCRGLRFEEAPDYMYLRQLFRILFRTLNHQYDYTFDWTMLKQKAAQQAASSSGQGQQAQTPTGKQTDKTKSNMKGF
UniProt P48730: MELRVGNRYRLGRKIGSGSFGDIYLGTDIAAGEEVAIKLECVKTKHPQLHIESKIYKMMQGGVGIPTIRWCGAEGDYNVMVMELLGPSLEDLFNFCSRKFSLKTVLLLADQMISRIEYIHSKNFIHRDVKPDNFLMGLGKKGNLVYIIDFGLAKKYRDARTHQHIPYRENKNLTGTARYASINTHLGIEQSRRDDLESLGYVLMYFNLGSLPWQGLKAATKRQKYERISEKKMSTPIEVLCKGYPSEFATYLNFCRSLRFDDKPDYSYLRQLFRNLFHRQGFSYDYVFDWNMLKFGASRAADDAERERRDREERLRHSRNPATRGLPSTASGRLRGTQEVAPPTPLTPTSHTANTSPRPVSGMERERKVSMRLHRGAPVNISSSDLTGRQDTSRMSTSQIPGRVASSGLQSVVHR
UniProt Q08345: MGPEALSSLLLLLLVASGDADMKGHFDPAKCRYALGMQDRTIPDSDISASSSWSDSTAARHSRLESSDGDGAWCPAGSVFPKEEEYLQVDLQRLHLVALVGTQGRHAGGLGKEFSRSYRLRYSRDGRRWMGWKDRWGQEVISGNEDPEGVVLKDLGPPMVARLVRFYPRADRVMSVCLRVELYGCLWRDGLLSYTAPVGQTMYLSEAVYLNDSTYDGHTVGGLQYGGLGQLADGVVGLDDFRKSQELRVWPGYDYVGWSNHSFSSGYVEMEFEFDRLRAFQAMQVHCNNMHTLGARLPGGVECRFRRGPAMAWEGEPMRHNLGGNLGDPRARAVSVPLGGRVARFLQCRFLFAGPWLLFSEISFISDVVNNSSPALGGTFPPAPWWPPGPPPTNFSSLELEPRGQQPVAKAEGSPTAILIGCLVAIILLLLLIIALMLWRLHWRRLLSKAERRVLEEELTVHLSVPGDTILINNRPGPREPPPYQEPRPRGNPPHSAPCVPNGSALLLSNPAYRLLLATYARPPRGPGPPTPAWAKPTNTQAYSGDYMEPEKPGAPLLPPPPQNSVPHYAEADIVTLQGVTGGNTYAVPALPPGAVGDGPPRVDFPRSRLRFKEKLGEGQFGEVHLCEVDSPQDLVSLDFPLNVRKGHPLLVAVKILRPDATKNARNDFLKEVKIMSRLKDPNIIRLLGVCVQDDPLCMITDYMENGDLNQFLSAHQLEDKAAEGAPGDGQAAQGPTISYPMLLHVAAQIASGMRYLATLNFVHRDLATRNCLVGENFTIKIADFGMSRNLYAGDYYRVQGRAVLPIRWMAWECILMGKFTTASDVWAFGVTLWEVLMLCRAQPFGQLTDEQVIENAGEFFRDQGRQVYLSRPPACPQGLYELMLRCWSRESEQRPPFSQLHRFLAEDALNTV
UniProt Q9Y463, whole entry, looked up: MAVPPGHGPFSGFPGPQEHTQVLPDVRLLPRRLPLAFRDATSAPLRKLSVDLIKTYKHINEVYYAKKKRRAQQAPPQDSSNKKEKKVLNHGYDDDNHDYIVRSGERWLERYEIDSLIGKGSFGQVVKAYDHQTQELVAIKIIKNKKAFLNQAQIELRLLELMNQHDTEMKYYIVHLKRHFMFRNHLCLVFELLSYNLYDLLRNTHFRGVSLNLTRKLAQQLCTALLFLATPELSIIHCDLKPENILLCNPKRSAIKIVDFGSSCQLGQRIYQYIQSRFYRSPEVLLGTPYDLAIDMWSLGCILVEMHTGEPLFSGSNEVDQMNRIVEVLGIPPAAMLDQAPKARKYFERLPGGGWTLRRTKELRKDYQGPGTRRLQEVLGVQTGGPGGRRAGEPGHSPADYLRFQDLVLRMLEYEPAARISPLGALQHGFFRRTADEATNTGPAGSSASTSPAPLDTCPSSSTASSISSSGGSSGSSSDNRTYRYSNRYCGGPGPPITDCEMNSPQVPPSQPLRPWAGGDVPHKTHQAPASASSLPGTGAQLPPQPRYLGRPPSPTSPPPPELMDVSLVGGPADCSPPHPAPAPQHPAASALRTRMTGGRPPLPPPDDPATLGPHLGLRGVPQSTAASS
UniProt Q92630: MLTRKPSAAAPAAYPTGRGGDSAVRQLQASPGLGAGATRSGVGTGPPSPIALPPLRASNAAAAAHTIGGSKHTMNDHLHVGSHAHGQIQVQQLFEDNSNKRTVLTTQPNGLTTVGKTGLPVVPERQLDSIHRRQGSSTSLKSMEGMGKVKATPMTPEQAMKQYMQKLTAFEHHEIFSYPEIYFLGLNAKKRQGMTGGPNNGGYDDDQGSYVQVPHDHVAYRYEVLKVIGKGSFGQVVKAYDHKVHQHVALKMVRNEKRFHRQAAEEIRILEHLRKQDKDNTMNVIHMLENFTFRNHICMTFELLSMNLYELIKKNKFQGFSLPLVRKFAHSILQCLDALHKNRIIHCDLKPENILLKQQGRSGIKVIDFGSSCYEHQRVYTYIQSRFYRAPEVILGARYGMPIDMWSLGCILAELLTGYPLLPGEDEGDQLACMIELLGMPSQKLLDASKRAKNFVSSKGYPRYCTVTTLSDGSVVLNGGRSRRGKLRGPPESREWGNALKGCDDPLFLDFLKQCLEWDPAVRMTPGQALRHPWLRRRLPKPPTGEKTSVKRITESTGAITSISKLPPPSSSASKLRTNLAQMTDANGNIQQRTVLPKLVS

What was measured:
Experiment in all cases: kinase-Nluc reporter destabilization hit call (1 = scored as downregulated) (binary); higher = compound decreases kinase abundance
Details in all cases: K562; 2-18 h
CDK7 = CDK7 (UniProt P50613)
CDK9 = CDK9 (UniProt P50750)
CHEK2 = CHEK2 (UniProt O96017)
CSF1R = CSF1R (UniProt P07333)
CSK = CSK (UniProt P41240)
CSNK1A1 = CSNK1A1 (UniProt P48729)
CSNK1D = CSNK1D (UniProt P48730)
DDR1 = DDR1 (UniProt Q08345)
DYRK1B = DYRK1B (UniProt Q9Y463)
DYRK2 = DYRK2 (UniProt Q92630)

Row | Structure (SMILES) | kinase-Nluc reporter destabilization hit call (CDK7) | kinase-Nluc reporter destabilization hit call (CDK9) | kinase-Nluc reporter destabilization hit call (CHEK2) | kinase-Nluc reporter destabilization hit call (CSF1R) | kinase-Nluc reporter destabilization hit call (CSK) | kinase-Nluc reporter destabilization hit call (CSNK1A1) | kinase-Nluc reporter destabilization hit call (CSNK1D) | kinase-Nluc reporter destabilization hit call (DDR1) | kinase-Nluc reporter destabilization hit call (DYRK1B) | kinase-Nluc reporter destabilization hit call (DYRK2)
1 | CN1CCN(Cc2ccc(-c3cn(C4CCC(O)CC4)c4nc(NCCC5CC5)ncc34)cc2)CC1 (stereo not given) (2.5 µM) | inactive: 0 | inactive: 0 | inactive: 0 | inactive: 0 | inactive: 0 | inactive: 0 | inactive: 0 | inactive: 0 | inactive: 0 | inactive: 0
2 | Cc1cccc(CC(=O)N2CCc3c2ccc(-c2cn(C)c4ncnc(N)c24)c3F)n1 (10 µM) | inactive: 0 | inactive: 0 | inactive: 0 | inactive: 0 | inactive: 0 | inactive: 0 | inactive: 0 | inactive: 0 | inactive: 0 | inactive: 0
3 | CC(C)(C)S(=O)(=O)c1cc2c(Nc3ccc4scnc4c3)ncnc2cc1OCCOP(=O)(O)O (2 µM) | inactive: 0 | inactive: 0 | inactive: 0 | inactive: 0 | inactive: 0 | inactive: 0 | inactive: 0 | inactive: 0 | inactive: 0 | inactive: 0
4 | CO[C@]1(C(=O)N[C@@H](C)c2ccc(-n3cc(F)cn3)nc2)CC[C@H](c2nc(C)cc(Nc3cc(C)[nH]n3)n2)CC1 [Pralsetinib] (10 µM) | inactive: 0 | inactive: 0 | inactive: 0 | inactive: 0 | inactive: 0 | inactive: 0 | inactive: 0 | active: 1 | inactive: 0 | inactive: 0
5 | Oc1ccc(-c2cnc3ccc(NCc4ccco4)nn23)cc1 [IRAK inhibitor 2] (2.5 µM) | inactive: 0 | inactive: 0 | inactive: 0 | inactive: 0 | inactive: 0 | inactive: 0 | inactive: 0 | inactive: 0 | inactive: 0 | inactive: 0
6 | CC1=C(C#N)C(c2ccc3[nH]nc(C)c3c2)C(C#N)=C(C)N1 (10 µM) | inactive: 0 | inactive: 0 | inactive: 0 | inactive: 0 | inactive: 0 | inactive: 0 | inactive: 0 | inactive: 0 | inactive: 0 | inactive: 0
7 | Cc1nc(NC(=O)N2CCC[C@H]2C(N)=O)sc1-c1ccnc(C(C)(C)C(F)(F)F)c1 [Alpelisib] (2.5 µM) | inactive: 0 | inactive: 0 | inactive: 0 | inactive: 0 | inactive: 0 | inactive: 0 | inactive: 0 | inactive: 0 | inactive: 0 | inactive: 0
8 | COc1cc(Nc2ccnc3ccc(Br)cc23)cc(OC)c1OC (2.5 µM) | inactive: 0 | inactive: 0 | inactive: 0 | inactive: 0 | inactive: 0 | inactive: 0 | inactive: 0 | inactive: 0 | inactive: 0 | inactive: 0
9 | CN(C)c1cc[n+](Cc2ccc(OCCOc3ccc(C[n+]4ccc(N(C)C)cc4)cc3)cc2)cc1 (10 µM) | inactive: 0 | inactive: 0 | inactive: 0 | inactive: 0 | inactive: 0 | inactive: 0 | inactive: 0 | inactive: 0 | inactive: 0 | inactive: 0
10 | O=C1C=CC2=C3c4cc(O)c(O)cc4CC3(O)COC2=C1O (stereo not given) [Hematein] (10 µM) | inactive: 0 | inactive: 0 | inactive: 0 | inactive: 0 | inactive: 0 | inactive: 0 | inactive: 0 | inactive: 0 | inactive: 0 | inactive: 0
11 | N#C/C(=C/c1ccc(O)c(O)c1)C(=O)N1CCc2ccccc21 [Tyrphostin AG 528] (10 µM) | inactive: 0 | inactive: 0 | inactive: 0 | inactive: 0 | inactive: 0 | inactive: 0 | inactive: 0 | inactive: 0 | inactive: 0 | inactive: 0
12 | Cc1ncc(-c2cc(F)c(O)c(F)c2)cc1-c1cc(F)c(O)c(F)c1 (10 µM) | inactive: 0 | inactive: 0 | inactive: 0 | inactive: 0 | inactive: 0 | inactive: 0 | inactive: 0 | inactive: 0 | inactive: 0 | inactive: 0
13 | Cc1ncsc1-c1ccc(CNC(=O)[C@@H]2C[C@@H](O)CN2C(=O)[C@@H](NC(=O)COCCOc2ccc(-c3cc(Nc4ccc(OC(F)(F)F)cc4)ncn3)cc2)C(C)(C)C)cc1 (2.5 µM) | inactive: 0 | inactive: 0 | inactive: 0 | inactive: 0 | inactive: 0 | inactive: 0 | inactive: 0 | inactive: 0 | inactive: 0 | inactive: 0
14 | CN(C)CCn1cc2cc(NC(=O)c3cccc(C(F)(F)F)n3)c(C(C)(C)O)cc2n1 (10 µM) | inactive: 0 | inactive: 0 | inactive: 0 | inactive: 0 | inactive: 0 | inactive: 0 | inactive: 0 | inactive: 0 | inactive: 0 | inactive: 0
15 | Cc1cccc(-c2nn3c(c2-c2ccnc4ccc(C(N)=O)cc24)CCC3)n1 [Galunisertib] (10 µM) | inactive: 0 | inactive: 0 | inactive: 0 | inactive: 0 | inactive: 0 | inactive: 0 | inactive: 0 | inactive: 0 | inactive: 0 | inactive: 0
16 | CS(=O)(=O)c1ccc([C@@H](CC2CCCC2)C(=O)Nc2nccs2)cc1 (10 µM) | inactive: 0 | inactive: 0 | inactive: 0 | inactive: 0 | inactive: 0 | inactive: 0 | inactive: 0 | inactive: 0 | inactive: 0 | inactive: 0
17 | COc1c(Nc2ncc(Cl)c(N[C@H]3[C@@H](C(N)=O)[C@@H]4C=C[C@H]3C4)n2)ccc2c1CC[C@@H](N1CCOCC1)CC2 (10 µM) | inactive: 0 | inactive: 0 | inactive: 0 | inactive: 0 | inactive: 0 | inactive: 0 | inactive: 0 | inactive: 0 | inactive: 0 | inactive: 0
18 | CC(=O)O[C@@H]1[C@@H](OC(C)=O)[C@@H](O)[C@H](Oc2c(-c3ccc(O)cc3)oc3cc(O)cc(O)c3c2=O)O[C@H]1C (10 µM) | inactive: 0 | inactive: 0 | inactive: 0 | inactive: 0 | inactive: 0 | inactive: 0 | inactive: 0 | inactive: 0 | inactive: 0 | inactive: 0
19 | O=C1CCC(N2C(=O)c3cccc(OCCCCCOc4ccc(CC(=O)Nc5cc(C6CCC6)[nH]n5)cc4)c3C2=O)C(=O)N1 (stereo not given) [PROTAC CDK9 Degrader-1] (10 µM) | inactive: 0 | inactive: 0 | inactive: 0 | inactive: 0 | inactive: 0 | inactive: 0 | inactive: 0 | inactive: 0 | inactive: 0 | inactive: 0
20 | COc1ccc(CN2CCC(c3ccc4nc(C(=O)N5CCN(Cc6ccc(C(F)(F)F)cc6)CC5)[nH]c4c3)CC2)cn1 (2.5 µM) | inactive: 0 | inactive: 0 | inactive: 0 | inactive: 0 | inactive: 0 | inactive: 0 | inactive: 0 | inactive: 0 | inactive: 0 | inactive: 0
21 | COc1cc2nc(-c3cc(F)ccc3O)nc(N[C@@H]3CNC[C@H]3C(C)(C)O)c2cc1OC (2.5 µM) | inactive: 0 | inactive: 0 | inactive: 0 | inactive: 0 | inactive: 0 | inactive: 0 | inactive: 0 | inactive: 0 | inactive: 0 | inactive: 0
22 | NC(=O)c1cnc(N[C@@H]2CCCC[C@@H]2N)nc1Nc1cccc(-n2nccn2)c1 (2.5 µM) | inactive: 0 | inactive: 0 | inactive: 0 | inactive: 0 | inactive: 0 | inactive: 0 | inactive: 0 | active: 1 | inactive: 0 | inactive: 0
23 | CNCCOc1ccccc1C1(Nc2nccn(-c3cc(C(=O)NC4CC4)cc(F)c3C)c2=O)CC1 (10 µM) | inactive: 0 | inactive: 0 | inactive: 0 | inactive: 0 | inactive: 0 | inactive: 0 | inactive: 0 | inactive: 0 | inactive: 0 | inactive: 0
24 | O=c1cc(-c2ccc(O[C@@H]3O[C@H](CO)[C@@H](O)[C@H](O)[C@H]3O)cc2)oc2cc(O)c([C@@H]3O[C@H](CO)[C@@H](O)[C@H](O)[C@H]3O[C@@H]3OC[C@H](O)[C@H](O)[C@H]3O)c(O)c12 [Vaccarin] (10 µM) | inactive: 0 | inactive: 0 | inactive: 0 | inactive: 0 | inactive: 0 | inactive: 0 | inactive: 0 | inactive: 0 | inactive: 0 | inactive: 0
25 | CC(C)Cn1ncc2cc(Oc3ccc(F)cc3F)c(C(=O)NCCN(C)C)cc21 [p38α inhibitor 1] (10 µM) | inactive: 0 | inactive: 0 | inactive: 0 | inactive: 0 | inactive: 0 | inactive: 0 | inactive: 0 | inactive: 0 | inactive: 0 | inactive: 0
26 | Nc1ccc(-c2cccc(C(=O)Nc3cnc4nc(N5CCOCC5)oc4c3)n2)cn1 (10 µM) | inactive: 0 | inactive: 0 | inactive: 0 | inactive: 0 | inactive: 0 | inactive: 0 | inactive: 0 | inactive: 0 | inactive: 0 | inactive: 0
27 | O=C(Nc1ccccc1C(=O)NC1CCCCNC1=O)c1cc2ccccc2s1 (stereo not given) (10 µM) | inactive: 0 | inactive: 0 | inactive: 0 | inactive: 0 | inactive: 0 | inactive: 0 | inactive: 0 | inactive: 0 | inactive: 0 | inactive: 0
28 | CC(C)(CCCCCC(O)CCCCCC(C)(C)C(=O)O)C(=O)O [Bempedoic acid] (10 µM) | inactive: 0 | inactive: 0 | inactive: 0 | inactive: 0 | inactive: 0 | inactive: 0 | inactive: 0 | inactive: 0 | inactive: 0 | inactive: 0
29 | Cn1cnc2c(F)c(Nc3ccc(Br)cc3F)c(C(=O)NOCCO)cc21 [Binimetinib] (10 µM) | inactive: 0 | inactive: 0 | inactive: 0 | inactive: 0 | inactive: 0 | inactive: 0 | inactive: 0 | inactive: 0 | inactive: 0 | inactive: 0
30 | C[C@@H]1COC(Nc2ccc3ncnc(Nc4ccc(OCc5nccs5)c(Cl)c4)c3c2)=N1 [Varlitinib] (10 µM) | inactive: 0 | inactive: 0 | inactive: 0 | inactive: 0 | inactive: 0 | inactive: 0 | inactive: 0 | inactive: 0 | inactive: 0 | inactive: 0

One compound at a time (already shown). Order of values: kinase-Nluc reporter destabilization hit call (CDK7)	kinase-Nluc reporter destabilization hit call (CDK9)	kinase-Nluc reporter destabilization hit call (CHEK2)	kinase-Nluc reporter destabilization hit call (CSF1R)	kinase-Nluc reporter destabilization hit call (CSK)	kinase-Nluc reporter destabilization hit call (CSNK1A1)	kinase-Nluc reporter destabilization hit call (CSNK1D)	kinase-Nluc reporter destabilization hit call (DDR1)	kinase-Nluc reporter destabilization hit call (DYRK1B)	kinase-Nluc reporter destabilization hit call (DYRK2)
`CN(C)c1cc[n+](Cc2ccc(OCCOc3ccc(C[n+]4ccc(N(C)C)cc4)cc3)cc2)cc1` (10 µM) in the list: inactive: 0	inactive: 0	inactive: 0	inactive: 0	inactive: 0	inactive: 0	inactive: 0	inactive: 0	inactive: 0	inactive: 0
`NC(=O)c1cnc(N[C@@H]2CCCC[C@@H]2N)nc1Nc1cccc(-n2nccn2)c1` (2.5 µM) in the list: inactive: 0	inactive: 0	inactive: 0	inactive: 0	inactive: 0	inactive: 0	inactive: 0	active: 1	inactive: 0	inactive: 0
